PubChem BioAssay AID1259254, NCATS – 2017
In all, the deposit lists about 59,000 reagents; shown is an unselected part. Over the whole deposit, about 1,550 (2.6%) got an active call. 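G2 share is only a proxy for re-replication; each gene was hit by three separate siRNAs, and active genes were retested.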 Raw values vary from plate to plate and are shown uncorrected. The numbers tell different reagents against one gene apart. Not stated in the record: the amount of reagent.

Aim: 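Finding genes that stop cells copying their DNA twice in one cycle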 (primary screen)
Cell system: human HCT116 colorectal cancer cells
Knock-down reagent: single siRNA against human genes
Time to read-out: 3 days
Read-out: 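Nuclei stained with Hoechst and imaged; cell-cycle phase assigned by DNA content; G2 share scaled per plate, non-targeting siRNA 0%, GMNN siRNA 100%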
Direction: G2 robust z-score and G2 cells, % of GMNN control: higher = more G2 cells, more excess DNA replication; raw share of cells in G2: higher = larger share of cells with G2 DNA content
Call rule: 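Active siRNAs have a G2 robust z of 5 or more median absolute deviations over the median, which in these data means about 38% or higher of GMNN control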

no.	gene symbol	siRNA no.	G2 robust z-score	G2 cells, % of GMNN control	raw share of cells in G2 (%)	Call
1	HOXC4 (homeobox C4)	1	0.294	5.04	6.88	inactive
2	HOXC4 (homeobox C4)	2	1.58	14.1	11	inactive
3	HOXC4 (homeobox C4)	3	-0.741	-2.25	3.38	inactive
4	FEN1 (flap structure-specific endonuclease 1)	1	6.07	45.7	22.6	active
5	FEN1 (flap structure-specific endonuclease 1)	2	-0.725	-2.13	2.9	inactive
6	FEN1 (flap structure-specific endonuclease 1)	3	-0.39	0.224	5.32	inactive
7	VRK3 (VRK serine/threonine kinase 3)	1	-1.04	-4.33	4.24	inactive
8	VRK3 (VRK serine/threonine kinase 3)	2	0.406	5.83	7.31	inactive
9	VRK3 (VRK serine/threonine kinase 3)	3	-0.385	0.256	3.76	inactive
10	PKD1L2 (polycystin 1 like 2 (gene/pseudogene))	1	1.88	16.2	13.2	inactive
11	PKD1L2 (polycystin 1 like 2 (gene/pseudogene))	2	-0.149	1.92	5.79	inactive
12	PKD1L2 (polycystin 1 like 2 (gene/pseudogene))	3	2.87	23.1	13.2	inactive
13	PEX12 (peroxisomal biogenesis factor 12)	1	-0.0107	2.89	4.37	inactive
14	PEX12 (peroxisomal biogenesis factor 12)	2	2.1	17.8	10.6	inactive
15	PEX12 (peroxisomal biogenesis factor 12)	3	0.683	7.77	6.64	inactive
16	WASF2 (WASP family member 2)	1	0.128	3.87	7.08	inactive
17	WASF2 (WASP family member 2)	2	-0.424	-0.0167	3.94	inactive
18	WASF2 (WASP family member 2)	3	-0.776	-2.49	2.5	inactive
19	JPX (JPX transcript, XIST activator)	1	0.0212	3.12	4.38	inactive
20	JPX (JPX transcript, XIST activator)	2	-0.329	0.649	3.25	inactive
21	JPX (JPX transcript, XIST activator)	3	1.95	16.7	10.1	inactive
22	ZSCAN4 (zinc finger and SCAN domain containing 4)	1	1.12	10.9	6.83	inactive
23	ZSCAN4 (zinc finger and SCAN domain containing 4)	2	-0.742	-2.26	2.38	inactive
24	ZSCAN4 (zinc finger and SCAN domain containing 4)	3	0.147	4	4.93	inactive
25	DSCAM (DS cell adhesion molecule)	1	-0.835	-2.9	3.1	inactive
26	DSCAM (DS cell adhesion molecule)	2	0.03	3.18	6.15	inactive
27	DSCAM (DS cell adhesion molecule)	3	-0.0574	2.56	5.88	inactive
28	SLAIN1 (SLAIN family member 1)	1	0.952	9.66	7.97	inactive
29	SLAIN1 (SLAIN family member 1)	2	-0.728	-2.15	2.69	inactive
30	SLAIN1 (SLAIN family member 1)	3	0.0176	3.09	2.72	inactive
31	HS3ST2 (heparan sulfate-glucosamine 3-sulfotransferase 2)	1	-0.119	2.13	6.01	inactive
32	HS3ST2 (heparan sulfate-glucosamine 3-sulfotransferase 2)	2	2.48	20.4	13	inactive
33	HS3ST2 (heparan sulfate-glucosamine 3-sulfotransferase 2)	3	-0.491	-0.485	3.03	inactive
34	PDLIM1 (PDZ and LIM domain 1)	1	0.976	9.83	9	inactive
35	PDLIM1 (PDZ and LIM domain 1)	2	-0.233	1.33	5.18	inactive
36	PDLIM1 (PDZ and LIM domain 1)	3	-1.28	-6.03	3.14	inactive
37	SUSD4 (sushi domain containing 4)	1	-0.484	-0.435	4.36	inactive
38	SUSD4 (sushi domain containing 4)	2	2.47	20.4	12.6	inactive
39	SUSD4 (sushi domain containing 4)	3	-0.0774	2.42	3.91	inactive
40	PPP2R3B (protein phosphatase 2 regulatory subunit B''beta)	1	-0.177	1.72	5.35	inactive
41	PPP2R3B (protein phosphatase 2 regulatory subunit B''beta)	2	-1.18	-5.32	2.7	inactive
42	PPP2R3B (protein phosphatase 2 regulatory subunit B''beta)	3	1.78	15.5	8.16	inactive
43	CD19 (CD19 molecule)	1	-0.0961	2.29	6.38	inactive
44	CD19 (CD19 molecule)	2	0.863	9.04	7.4	inactive
45	CD19 (CD19 molecule)	3	3.24	25.8	13.6	inactive
46	MGAT4B	1	-0.157	1.86	7.12	inactive
47	MGAT4B	2	-0.333	0.622	4.36	inactive
48	MGAT4B	3	-0.645	-1.57	3.33	inactive
49	NQO2 (N-ribosyldihydronicotinamide:quinone dehydrogenase 2)	1	1.91	16.4	8.6	inactive
50	NQO2 (N-ribosyldihydronicotinamide:quinone dehydrogenase 2)	2	-0.971	-3.86	3.87	inactive
51	NQO2 (N-ribosyldihydronicotinamide:quinone dehydrogenase 2)	3	-0.842	-2.96	4.3	inactive
52	GRK1 (G protein-coupled receptor kinase 1)	1	0.116	3.78	6.86	inactive
53	GRK1 (G protein-coupled receptor kinase 1)	2	-1.68	-8.83	2.43	inactive
54	GRK1 (G protein-coupled receptor kinase 1)	3	-0.987	-3.98	2.62	inactive
55	CRIP2 (cysteine rich protein 2)	1	-1.24	-5.74	2.12	inactive
56	CRIP2 (cysteine rich protein 2)	2	-0.729	-2.16	4.19	inactive
57	CRIP2 (cysteine rich protein 2)	3	0.741	8.18	7.98	inactive
58	MYD88 (MYD88 innate immune signal transduction adaptor)	1	-0.492	-0.494	5.17	inactive
59	MYD88 (MYD88 innate immune signal transduction adaptor)	2	-0.537	-0.813	2.93	inactive
60	MYD88 (MYD88 innate immune signal transduction adaptor)	3	1.55	13.9	11	inactive
61	ZBTB32 (zinc finger and BTB domain containing 32)	1	-0.838	-2.93	3.03	inactive
62	ZBTB32 (zinc finger and BTB domain containing 32)	2	1.54	13.8	8.76	inactive
63	ZBTB32 (zinc finger and BTB domain containing 32)	3	2.34	19.4	15	inactive
64	FKBP6 (FKBP prolyl isomerase family member 6 (inactive))	1	-1.24	-5.75	1.93	inactive
65	FKBP6 (FKBP prolyl isomerase family member 6 (inactive))	2	0.965	9.76	8.2	inactive
66	FKBP6 (FKBP prolyl isomerase family member 6 (inactive))	3	-0.379	0.299	5.37	inactive
67	LOC646030 (leucine rich repeat containing 37B pseudogene)	1	1.53	13.7	8.96	inactive
68	LOC646030 (leucine rich repeat containing 37B pseudogene)	2	2.37	19.6	10.5	inactive
69	LOC646030 (leucine rich repeat containing 37B pseudogene)	3	2.41	19.9	9.37	inactive
70	LOC646030 (leucine rich repeat containing 37B pseudogene)	4	0.93	9.51	7.36	inactive
71	LOC646030 (leucine rich repeat containing 37B pseudogene)	5	2.95	23.8	12	inactive
72	LOC646030 (leucine rich repeat containing 37B pseudogene)	6	-0.509	-0.611	2.85	inactive

5 successive reagents from above:
no.	gene symbol	siRNA no.	G2 robust z-score	G2 cells, % of GMNN control	raw share of cells in G2 (%)	Call
38	SUSD4 (sushi domain containing 4)	2	2.47	20.4	12.6	inactive
39	SUSD4 (sushi domain containing 4)	3	-0.0774	2.42	3.91	inactive
40	PPP2R3B (protein phosphatase 2 regulatory subunit B''beta)	1	-0.177	1.72	5.35	inactive
41	PPP2R3B (protein phosphatase 2 regulatory subunit B''beta)	2	-1.18	-5.32	2.7	inactive
42	PPP2R3B (protein phosphatase 2 regulatory subunit B''beta)	3	1.78	15.5	8.16	inactive
